{"source": "patent US20170283495A1", "binders": {"B1": {"name": "murine anti-hepcidin MAb 583 (antibody, V domains shown)", "VH": "QIQLVQSGPELKKPGETVKISCKASGYTFTNYGMNWVKQAPGKGLKWMGWINTYTGEPTYADDFKGRFAFSLETSASTAYLQINNLKNEDTATYFCTTYATSWYWGQGTTLTVSS", "VL": "DIVLTQSPASLAVSLGQRATISCRASESVDSYGNSFMHWYQQKPGQPPKLLIYRASNLESGIPARFSGSGSRTDFTLTINPVEADDVATYYCQQSNEDLTFGGGTKLEIK"}, "B2": {"name": "BAP070-01 human-mouse chimeric MAb 583 (antibody, V domains shown)", "VH": "B1 VH with T110L, L111V", "VL": "DIVLTQSPASLAVSLGQRATISCRASESVDSYGNSFMHWYQQKPGQPPKLLIYRASNLESGIPARFSGSGSRTDFTLTINPVEADDVATYYCQQSNEDLTFGQGTKVEIKR"}}, "key": {"[1]": {"target": "T1, human hepcidin-22 peptide (human)", "T1 sequence (peptide)": "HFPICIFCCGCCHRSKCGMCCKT", "assay": "Western blot after non-reducing tricine SDS-PAGE"}, "[2]": {"target": "murine anti-hepcidin MAb 583", "assay": "competition ELISA, MAb 583 coated, NT-biotin hepcidin-25 tracer 1 ng/well (FIG. 16)"}, "[3]": {"target": "murine anti-hepcidin MAb 583", "assay": "competition ELISA, MAb 583 coated, NT-biotin hepcidin-25 tracer"}, "[4]": {"target": "T2, human hepcidin-25 (synthetic) (human)", "T2 sequence (peptide)": "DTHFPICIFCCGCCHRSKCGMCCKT", "assay": "ELISA, hepcidin-25 covalently bound to maleic anhydride plate"}, "[5]": {"target": "T2, human hepcidin-25 (synthetic) (human)", "assay": "ELISA, hepcidin-25 100 ng/well on maleic anhydride plate, serially diluted supernatant (FIG. 30)"}, "[6]": {"target": "T3, NT-biotin hepcidin-25 (human)", "T3 sequence (peptide, NT-biotin (biotin label; NT is not spelled out, taken as the N-terminus))": "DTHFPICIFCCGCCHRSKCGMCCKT", "assay": "C-ELISA, BAP070-01 on Protein G, NT-biotin hepcidin-25 tracer"}, "[7]": {"target": "T3, NT-biotin hepcidin-25 (human)", "assay": "C-ELISA, NT-biotin hepcidin-25 on neutravidin"}, "[8]": {"target": "BAP070-01 human-mouse chimeric MAb 583", "assay": "C-ELISA, BAP070-01 on Protein G, NT-biotin hepcidin-25 tracer"}, "[9]": {"target": "BAP070-01 human-mouse chimeric MAb 583", "assay": "C-ELISA, NT-biotin hepcidin-25 on neutravidin"}}, "note": "Changes are numbered by the printed parent chain. No constants are given. Whether binding was seen depends on the method and setting. Some entries that bind do so weakly or less than the wild type.", "data": [{"binder": "B1", "values": [{"measurement": "binding", "setting": "[1]", "value": "binds"}]}, {"binder": "HFPICIFCCGCCHRSKCGMCCKT", "note": "[human hepcidin-22 peptide]", "values": [{"measurement": "binding", "setting": "[2]", "value": "binds"}, {"measurement": "binding", "setting": "[3]", "value": "binds"}]}, {"binder": "B2", "values": [{"measurement": "binding", "setting": "[4]", "value": "binds"}, {"measurement": "binding", "setting": "[5]", "value": "binds"}, {"measurement": "binding", "setting": "[6]", "value": "binds"}, {"measurement": "binding", "setting": "[7]", "value": "binds"}]}, {"binder": "DTHFPICIFCCGCCHRSKCGMCCKT", "note": "[human hepcidin-25 (synthetic)]", "values": [{"measurement": "binding", "setting": "[8]", "value": "binds"}, {"measurement": "binding", "setting": "[9]", "value": "binds"}]}]}
